# At least one structure is not confirmed: it was looked up by name or label, or the drawing left a doubt.
# Assays:
# [1] = tested on: C. albicans strain modified to include a tetracycline-regulatable MSS4-expression system; experiment: Solid phase growth of C. albicans strain with tetracycline-regulatable MSS4 expression; type: cell-based; settings: 20 μg/ml doxycycline, 2 days at 30° C., MSS4 expression repressed
# [2] = tested on: tetracycline-regulatable MSS4-expression system C. albicans strain; experiment: Liquid phase growth of C. albicans strain with tetracycline-regulatable MSS4 expression; type: cell-based; settings: 20 μg/ml doxycycline, 25° C., up to 43 h, MSS4 expression repressed
# [3] = tested on: conditional mutants of C. albicans strains wherein the MSS4 gene is under the control of a tetracycline repressible promoter; experiment: Murine model of systemic infection with C. albicans conditional mutants; type: in vivo, BALB/c mice
structure (smiles),measurement,setting,value
C[C@H]1c2cccc(O)c2C(=O)C2=C(O)[C@]3(O)C(=O)C(C(N)=O)=C(O)[C@@H](N(C)C)[C@@H]3[C@@H](O)[C@@H]21 [doxycycline],colony formation (growth scored on SC-U plates),[1],Very few colonies were observed
same,growth in liquid YEPD medium (600 nm),[2],significantly reduced growth
same,kidney counts (colony forming unit counts per gram of kidney tissue),[3]; +DOX group compared to control group (−DOX),significantly reduced
same,body weight,"[3]; +DOX group, throughout the course of the study",maintained their weight
same,survival rate of infected mice,"[3]; DOX 2 mg/ml in 5% sucrose as drinking water, 1×10^6 CFU/mouse, 28 days, vs water control",unable to impact on the survival rate of the mice

# — patent US20060140926A1, “Mss4 as an antifungal target” (priority 2002, published 2006)
